Test results published in US20030143656A1.
These are yes or no findings as the source states them, for the method shown. Binding seen in cells or lysates may run through a third protein. Some binding calls cover weakened binding; strength is not graded here. Sequences can lack the tags named with a protein.

Chains of the proteins cited; added tags and fusions are not shown. Lines headed by an entry give the natural chain unless they say otherwise; changes in a name come on top.
UniProt Q16513: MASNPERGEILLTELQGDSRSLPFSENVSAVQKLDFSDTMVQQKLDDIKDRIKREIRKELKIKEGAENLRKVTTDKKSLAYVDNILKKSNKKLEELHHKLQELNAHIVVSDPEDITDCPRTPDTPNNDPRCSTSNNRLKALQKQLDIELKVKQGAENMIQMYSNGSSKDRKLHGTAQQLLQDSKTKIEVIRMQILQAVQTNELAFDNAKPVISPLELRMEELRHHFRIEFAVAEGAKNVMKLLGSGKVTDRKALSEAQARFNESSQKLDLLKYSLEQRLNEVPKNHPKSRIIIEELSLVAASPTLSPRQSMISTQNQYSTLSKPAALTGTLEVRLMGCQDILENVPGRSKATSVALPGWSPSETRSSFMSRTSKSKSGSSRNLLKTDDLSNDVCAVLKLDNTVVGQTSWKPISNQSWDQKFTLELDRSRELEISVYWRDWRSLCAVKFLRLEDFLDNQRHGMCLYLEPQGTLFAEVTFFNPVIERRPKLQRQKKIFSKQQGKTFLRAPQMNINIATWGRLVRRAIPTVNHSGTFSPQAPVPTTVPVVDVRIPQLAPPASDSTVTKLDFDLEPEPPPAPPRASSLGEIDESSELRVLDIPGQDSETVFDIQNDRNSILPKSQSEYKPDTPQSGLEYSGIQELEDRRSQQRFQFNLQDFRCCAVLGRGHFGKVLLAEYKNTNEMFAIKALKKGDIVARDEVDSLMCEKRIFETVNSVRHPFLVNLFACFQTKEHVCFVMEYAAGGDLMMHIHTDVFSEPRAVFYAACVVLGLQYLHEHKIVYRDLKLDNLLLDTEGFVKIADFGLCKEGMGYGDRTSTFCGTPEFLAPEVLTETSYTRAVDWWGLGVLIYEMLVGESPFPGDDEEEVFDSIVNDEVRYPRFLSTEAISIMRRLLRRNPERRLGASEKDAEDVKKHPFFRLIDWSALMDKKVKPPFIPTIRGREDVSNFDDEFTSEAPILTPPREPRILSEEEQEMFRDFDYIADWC

Biological target: GST-PIF (human) (UniProt Q16513)
Experiment: GST-PIF pull-down from co-transfected 293 cells, anti-Myc blot

binding: binds
B1: Myc-PDK1 (wild type) (enzyme, human, UniProt O15530 1-556, looked up, not shown: small tags and cut ends)
chain: MARTTSQLYDAVPIQSSVVLCSCPSPSMVRTQTESSTPPGIPGGSRQGPAMDGTAAEPRPGAGSLQHAQPPPQPRKKRPEDFKFGKILGEGSFSTVVLARELATSREYAIKILEKRHIIKENKVPYVTRERDVMSRLDHPFFVKLYFTFQDDEKLYFGLSYAKNGELLKYIRKIGSFDETCTRFYTAEIVSALEYLHGKGIIHRDLKPENILLNEDMHIQITDFGTAKVLSPESKQARANSFVGTAQYVSPELLTEKSACKSSDLWALGCIIYQLVAGLPPFRAGNEYLIFQKIIKLEYDFPEKFFPKARDLVEKLLVLDATKRLGCEEMEGYGPLKAHPFFESVTWENLHQQTPPKLTAYLPAMSEDDEDCYGNYDNLLSQFGCMQVSSSSSSHSLSASDTGLPQRSGSNIEQYIHDLDSNSFELDLQFSEDEKRLLLEKQAGGNPWHQFVENNLILKMGPVDKRKGLFARRRQLLLTEGPHLYYVDPVNKVLKGEIPWSQELRPEAKNFKTFFVHTPNRTYYLMDPSGNAHKWCRKIQEVWRQRYQSHPDAAVQ
